Results are given in words; binding and its absence hold for the method and conditions named. Some entries that bind do so weakly or less than the wild type.

Sequences of proteins named here, by UniProt entry; tags and fusion partners are left off. A change or cut given only in a name is not applied to a line headed by its entry.
UniProt P09513: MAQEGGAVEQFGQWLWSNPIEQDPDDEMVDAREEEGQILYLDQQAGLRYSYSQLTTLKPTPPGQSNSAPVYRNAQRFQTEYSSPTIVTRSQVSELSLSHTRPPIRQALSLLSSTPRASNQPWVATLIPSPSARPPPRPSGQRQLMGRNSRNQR

Here are results for 2 substances from EP4455293A1.

Assay [1] concerns the target HvVHA-E (barley V-type proton ATPase subunit E protein) (barley (Hordeum vulgare L.)). As to the kind of experiment: yeast two-hybrid (GAL4; bait pGBKT7-BYDV_RTD, prey pGADT7-HvVHA-E), yeast growth.
The target is the same in assay [2]. As to the kind of experiment: yeast two-hybrid (GAL4; bait pGBKT7-BYDV_MP, prey pGADT7-HvVHA-E), yeast growth.

As for “BYDV RTD protein (from UniProt P09516 202-651)”, the binding result in assay [1] is reported as “binds”.

Take “BYDV MP protein (from UniProt P09513 1-152)”: the binding result in assay [2] is recorded as “binds”.
